Data from PubChem BioAssay AID662 (National Center for Advancing Translational Sciences (NCATS), 2007).
Several values for one entry are separate records, joined by “and”; a condition that tells them apart may be missing. Identical values can stand only once. The list shows a part of the results. Further columns of the screen follow, without active or inactive calls. Compounds called inactive in the main read-out are mostly missing here. Words in brackets tell the shape of the fitted curve; partial curves, single points and poor fits give uncertain potencies.

Assay: Cell signaling CRE-BLA (Fsk stim)
Details: CHO CRE-bla reporter (cAMP response element driving beta-lactamase), forskolin EC10, beta-lactamase ratio; measured here: 460 nm blue channel
Method in brief: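 Forskolin analogue NKH 477 at EC10 stimulated CRE-driven beta-lactamase in CHO cells alongside compound dilution series. Beta-lactamase was measured with CCF4, excitation 405 nm, emission ratio 460/530 nm.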

Structure (SMILES)	AC50
Cn1c(=O)c2c(nc(CN3CCN(c4cccc(Cl)c4)CC3)n2CCc2ccccc2)n(C)c1=O	12.6 µM [rising, partial curve]
COC(=O)CCc1c(C)c(C#N)c2nc3ccccc3n2c1N1CCCC1	12.6 µM [rising, partial curve]
CCOC(=O)CSc1nnc(-c2ccc(S(=O)(=O)N3CCC(C)CC3)cc2)o1	25.1 µM [falling, single point]
Cc1cc(N2CCN(c3ccccc3)CC2)nc(-c2ccccc2)n1	0.00794 µM [falling, full curve, poor fit]
Cc1nc2c(C(=O)NCc3ccc4c(c3)OCO4)c[nH]n2c(=O)c1Cc1ccccc1F	20 µM [falling, single point]
O=C(Oc1nsnc1N1CCOCC1)N(c1ccccc1)c1ccccc1	25.1 µM [rising, single point]
CCOC(=O)C1=C(c2ccccc2)OC(N)=C(C#N)C1C(C)C (configuration not stated)	7.94 µM [rising, partial curve]
COc1cccc2cc(C(=O)NC(C)C3CCCO3)c(=O)oc12 (configuration not stated)	5.01 µM [falling, partial curve]
O=C(OCc1ccc(F)cc1Cl)c1ccccn1	10 µM [falling, partial curve]
C[C@H](NC[C@H](O)CP(=O)(O)Cc1ccccc1)c1ccc(Cl)c(Cl)c1	15.8 µM [falling, partial curve, poor fit]
O=C(Cn1ncc2c1-c1ccccc1OC2)Nc1nc2ccccc2s1	10 µM [falling, single point]
COc1ccc(CNC(=O)C(C)OC(=O)c2cccn2C)cc1 (configuration not stated)	3.16 µM [rising, single point]
CCOC(=O)N1CCC(Nc2nc3ccccc3n3nnnc23)CC1	15.8 µM [rising, single point]
CCCc1nc2sc3c(c2c(=O)n1N)CCC3	20 µM [rising, single point]
O=C1CCCN1CN(C(=O)c1ccc2c(c1)OCO2)c1ccc(F)cc1	0.0794 µM [rising, full curve]
Cn1cc(SCC(=O)Nc2nc3ccccc3s2)c2ccccc21	15.8 µM [falling, partial curve]
c1cncc(-c2nnc(SCc3cccc4ccccc34)o2)c1	12.6 µM [rising, single point]
COc1ccc([C@@H]2Sc3ccccc3N(CCN(C)C)C(=O)[C@@H]2OC(C)=O)cc1	31.6 µM [falling, single point]
CCOC(=O)c1ccc2nc3c(cc2c1)CCS3	25.1 µM [rising, single point]
O=c1c(-c2ccc(F)cc2)nc2cnc(N3CCOCC3)nc2n1-c1ccccc1	5.01 µM [rising, partial curve]
C/C(=C1\SC(N2CCOCC2)=NC1=O)c1ccccc1	0.00501 µM [falling, full curve]
Cc1nc(NC(=O)CSc2nc3cccnc3n2C2CCCCC2)sc1C	2.51 µM [rising, full curve, poor fit]
COc1ccc(N(C(=O)CNC(=O)c2ccco2)C(C(=O)NC2CCCCC2)c2ccco2)cc1 (configuration not stated)	25.1 µM [falling, single point]

Structure (SMILES)	AC50
O=C(CSc1ccc2nnc(-c3ccccc3)n2n1)N1CCN(c2ccccc2)CC1	5.01 µM [rising, partial curve]
O=C1CSC(=O)N1CC(O)COc1ccc(Cl)cc1 (configuration not stated)	0.398 µM [rising, partial curve]
CCCCn1c2c(c3ccccc31)CCc1nonc1-2	2 µM [rising, full curve]
CCn1cc(C(=O)OCC(=O)N(C)C2CCS(=O)(=O)C2)c(=O)c2ccc(C)nc21 (configuration not stated)	5.01 µM [rising, full curve, poor fit]
COc1cccc2sc(Nc3nnc(-c4ccccc4Cl)o3)nc12	3.16 µM [rising, partial curve]
Cc1c(Cl)cccc1Nc1nc(N)nc(CSc2ncccn2)n1	10 µM [rising, single point]
Fc1cccc(Cl)c1CSc1nnnn1-c1ccc2c(c1)OCO2	0.316 µM [rising, single point]
CCCS(=O)(=O)N1CCN(C(=O)CCC2CCCC2)CC1	5.01 µM [falling, single point]
COc1ccc(Oc2ncc3nc(C)c(=O)n(-c4ccc(OC)cc4)c3n2)cc1	6.31 µM [rising, partial curve]
CCN(CC)C(=O)COc1ccc2oc(C)c(C(=O)OC)c2c1	10 µM [rising, single point]
CCOc1ccc(N(CC(=O)Nc2ccc(C)c(C)c2)S(=O)(=O)c2c(C)noc2C)cc1	25.1 µM [falling, single point]
O=c1oc2ccccc2c(O)c1/C=N/c1nc(-c2ccc(O)c(O)c2)cs1	2 µM [falling, single point]
Cc1onc(-c2ccccc2)c1C(=O)Nc1ccccc1C#N	12.6 µM [rising, single point]
CCCCn1c(Cl)nc2c1c(=O)n(C)c(=O)n2C	12.6 µM [rising, single point]
Nc1c(C(=O)NC2CCCCC2)nsc1C(=O)OCC(=O)NC1CCCCC1	25.1 µM [rising, single point]
C=CC(=O)OCCOCCOC(=O)C=C	5.01 µM [falling, full curve]
COc1ccc(N2CCN(C(c3cccs3)C(C)NC(=O)c3ccco3)CC2)cc1 (configuration not stated)	25.1 µM [rising, single point]
CCNC(=O)CC1C(=O)N(c2ccccc2)C(=O)N1CCc1ccc(OC)cc1 (configuration not stated)	0.631 µM [falling, full curve]
CCc1c(C(=O)Nc2cc(C)ccc2OC)[nH]c(C)c1C(C)=O	5.01 µM [rising, full curve, poor fit]
CC[C@H](c1ccccc1)c1cc(C(C)(C)C)cc(C(C)(C)C)c1O	3.98 µM [rising, single point]
Cc1cc(C)n(-c2nc3c(c(=O)[nH]c(=O)n3C)n2CC(O)COc2ccccc2)n1 (configuration not stated)	12.6 µM [rising, partial curve]
CNc1nc2c(c(=O)n(C)c(=O)n2C)n1Cc1ccccc1	12.6 µM [rising, single point]
Cc1c(/C(O)=C2/C(=O)C(=O)N(CCN3CCOCC3)C2c2ccco2)cnn1-c1ccccc1 (configuration not stated)	25.1 µM [rising, single point]

Structure (SMILES)	AC50
O=C(c1ccco1)[C@@H]1[C@@H]2C(=O)N(c3ccccc3)C(=O)[C@@H]2C2c3ccccc3C=CN21 (some centres not stated)	3.98 µM [falling, single point]
O=C(CSc1nc2ccccc2c(=O)n1Cc1ccco1)N1CCCCCC1	10 µM [rising, partial curve]
CN1CCN(c2ncc3nc(-c4ccc(Cl)cc4)c(=O)n(CCC#N)c3n2)CC1	2.51 µM [rising, full curve]
O=C(NCc1ccccc1)c1ccc(F)c(S(=O)(=O)N2CCOCC2)c1	0.316 µM [falling, full curve]
COc1cc2c(C(=O)N3CCCc4ccccc43)cn(C)c(=O)c2cc1OC	15.8 µM [rising, partial curve]
CCSc1ncnc2c(C#N)c3n(c12)CCCCC3	10 µM [rising, partial curve]
O=C(c1ccco1)N1CCN(S(=O)(=O)c2ccc3c(c2)CCN3C(=O)C2CCC2)CC1	10 µM [rising, partial curve]
CCN1C(=O)c2ccccc2Sc2ccc(C(=O)NCCN3CCOCC3)cc21	12.6 µM [rising, single point]
O=c1ccsn1Cc1ccccc1	0.0316 µM [falling, full curve, poor fit]
O=c1c2ccccc2nnn1CSc1nc2sc3c(c2c(=O)n1CC1CCCO1)CCC3 (configuration not stated)	6.31 µM [rising, partial curve]
O=C1CCc2cc(S(=O)(=O)N3CCN(c4cccc(C(F)(F)F)c4)CC3)ccc2N1	15.8 µM [falling, partial curve, poor fit]
Cc1cc(-c2ccc(Cl)cc2)n2nc(N)nc2n1	15.8 µM [rising, single point]
O=C1C=C(NCCO)C(=O)c2cnccc21	7.94 µM [falling, partial curve]
CCn1ncc(Br)c1C(=O)Nc1ccc(Cl)cn1	10 µM [rising, partial curve]
COc1cccc(Nc2ncc3nc(-c4cccs4)c(=O)n(C[C@H]4CCCO4)c3n2)c1	10 µM [rising, partial curve]
COc1cc(NC(=O)c2cc3c(C)nc4ccccc4c3o2)cc(OC)c1OC	3.16 µM [rising, partial curve]
CN1CCN(c2ncc3nc(-c4ccc(Cl)cc4)c(=O)n(C4CC4)c3n2)CC1	6.31 µM [rising, partial curve]
CC1Cc2ccccc2N1C(=O)CCS(=O)(=O)c1cccc2nonc12 (configuration not stated)	0.158 µM [falling, full curve, poor fit]
Cc1cccc(-n2ncc3c(N4CCCC4)ncnc32)c1	2 µM [rising, single point]
CCCOc1ccccc1NC(=O)CC1Nc2ccccc2NC1=O (configuration not stated)	25.1 µM [rising, single point]
CC(C)(c1cc(Br)c(O)c(Br)c1)c1cc(Br)c(O)c(Br)c1	7.94 µM [rising, partial curve, poor fit] and 3.98 µM [rising, partial curve]
